From patent publication EP4679096A1, “BIOMARKERS AND METHOD FOR ESTIMATING BRAIN NEURODEGENERATIVE CONDITION” (SHIMADZU CORPORATION, priority 2023, dated 2024) come the findings set out here.

The data set in a line: Ng peptides in plasma by affinity purification (anti-Ng antibody beads) and MALDI-TOF MS; comparison of CN, MCI, AD_Aβ+ and nonAD_Aβ- groups. The arrangement: species or system human. The source says: At the National Center for Geriatrics and Gerontology, 161 plasma samples and clinical diagnostic information such as amyloid PET findings, FDG-PET findings, MRI findings and MMSE findings (Mini Mental State Examination) were acquired.
The subject is a case diagnosed with normal cognitive function (CN), mild cognitive impairment (MCI), Alzheimer's disease (AD), and dementia other than Alzheimer's disease (nonAD). A group of AD and nonAD was defined as a group of dementia.
PiB-PET images of the brains of the subjects were acquired in order to determine whether AB accumulation in the brain was positive or negative. A subject in which the accumulation amount of PiB in the cerebral cortex was larger than or equal to the accumulation amount of PiB in the non-specific white matter by visual interpretation evaluation by a nuclear medicine specialist was determined to be positive. A subject who had only non-specific accumulation in the white matter and hardly accumulated in the cortex was determined to be negative. The PiB accumulation average value (SUVR: Standard Uptake Value Ratio) quantified the PiB accumulation in the cortex, and the accumulation ratio of the cerebrum was determined on the basis of the cerebellum. […]

With “Ng7-55: neurogranin fragment peptide, No. 26 (NACSKPDDDILDIPLDDPGANAAAAKIQASFRGHMARKKIKSGERGRKG; UniProt Q92686 7-55, looked up, fragment)”, the “Median for each group nonAD” value (plasma NI, corrected as in Experimental Example 1, nonAD_Aβ- group per text) came out at 0.140. Moreover, the “Difference in median for each group CN vs AD_Aβ +” value (ratio of medians (times CN), Experimental Example 1 correction) came out at 1.11.
